This continues a long series; more values of the same kind are listed elsewhere.
Tested on: revascularization, unstable angina requiring hospitalization, MI, all causes of death, or stroke
Test: PROVE IT-TIMI 22: SNP by treatment interaction (high-dose atorvastatin vs standard-dose pravastatin), logistic regression (synergy index), primary composite endpoint
Type: in vivo, human

## CC(C)c1c(C(=O)Nc2ccccc2)c(-c2ccccc2)c(-c2ccc(F)cc2)n1CC[C@@H](O)C[C@@H](O)CC(=O)O [Atorvastatin, atorvastatin]
SNP rs4615971 allele C, model DOM, Imputed, ATORVA vs PRAVA
  OR: 1.347
SNP rs4628119 allele A, model DOM, Imputed, ATORVA vs PRAVA
  OR: 1.055
SNP rs4664443 allele G, model ADD, Imputed, ATORVA vs PRAVA
  OR: 1.009
SNP rs4688259 allele T, model DOM, Imputed, ATORVA vs PRAVA
  OR: 1.386
SNP rs4688632 allele G, model REC, Imputed, ATORVA vs PRAVA
  OR: 0.6822
SNP rs4695284 allele A, model ADD, Imputed, ATORVA vs PRAVA
  OR: 1.444
SNP rs4700302 allele A, model ADD, Imputed, ATORVA vs PRAVA
  OR: 1.136
SNP rs4702720 allele A, model ADD, Imputed, ATORVA vs PRAVA
  OR: 0.757
SNP rs4702720 allele A, model DOM, Imputed, ATORVA vs PRAVA
  OR: 0.6462
SNP rs4714484 allele A, model ADD, Imputed, ATORVA vs PRAVA
  OR: 0.8396
SNP rs4736802 allele G, model DOM, Imputed, ATORVA vs PRAVA
  OR: 0.9844
SNP rs4760785 allele A, model ADD, Imputed, ATORVA vs PRAVA
  OR: 0.7137
SNP rs4760785 allele A, model DOM, Imputed, ATORVA vs PRAVA
  OR: 0.7026
SNP rs4760894 allele T, model ADD, Imputed, ATORVA vs PRAVA
  OR: 0.7137
SNP rs4760894 allele T, model DOM, Imputed, ATORVA vs PRAVA
  OR: 0.7026
SNP rs4760895 allele A, model ADD, Imputed, ATORVA vs PRAVA
  OR: 0.7137
SNP rs4760895 allele A, model DOM, Imputed, ATORVA vs PRAVA
  OR: 0.7026
SNP rs4764738 allele A, model ADD, Imputed, ATORVA vs PRAVA
  OR: 0.9549
SNP rs4764974 allele T, model ADD, Imputed, ATORVA vs PRAVA
  OR: 0.9019
SNP rs4798366 allele G, model REC, Imputed, ATORVA vs PRAVA
  OR: 2.754
SNP rs4836502 allele T, model DOM, Imputed, ATORVA vs PRAVA
  OR: 0.5934
SNP rs4836507 allele C, model DOM, Imputed, ATORVA vs PRAVA
  OR: 0.5803
SNP rs4836744 allele A, model ADD, Imputed, ATORVA vs PRAVA
  OR: 0.7176
SNP rs36071725 allele C, model ADD, Genotyped, ATORVA vs PRAVA
  OR: 0.9696
SNP rs41395945 allele G, model ADD, Imputed, ATORVA vs PRAVA
  OR: 1.822
SNP rs41395945 allele G, model DOM, Imputed, ATORVA vs PRAVA
  OR: 1.919
rs152707, allele A, ADD, Imputed, PROVE-IT, vs pravastatin
  OR: 1.066
rs152712, allele C, ADD, Genotyped, PROVE-IT, vs pravastatin
  OR: 1.066
rs198460, allele G, REC, Genotyped
  OR: 1.956
rs198461 allele C (A1), DOM, Imputed, atorvastatin vs pravastatin
  OR: 0.5222
rs208026, allele A, DOM, Genotyped, PROVE-IT, vs pravastatin
  OR: 1.559
rs208029, allele T, DOM, Imputed, PROVE-IT, vs pravastatin
  OR: 1.924
rs208757, allele G, DOM, Imputed, PROVE-IT, vs pravastatin
  OR: 1.858
rs208757 allele G (A1), ADD, Imputed, atorvastatin vs pravastatin
  OR: 1.552
rs208757 allele G (A1), DOM, Imputed, atorvastatin vs pravastatin
  OR: 1.858
rs229775, allele A, REC, Imputed, PROVE-IT, vs pravastatin
  OR: 0.6598
rs229815, allele T, REC, Imputed, PROVE-IT, vs pravastatin
  OR: 0.6306
rs229829, allele C, REC, Imputed, PROVE-IT, vs pravastatin
  OR: 0.5855
rs229831, allele A, REC, Imputed, PROVE-IT, vs pravastatin
  OR: 0.6194
rs238252, allele G, DOM, Imputed, PROVE-IT, vs pravastatin
  OR: 1.191
rs264126 allele C (A1), DOM, Imputed, atorvastatin vs pravastatin
  OR: 0.6379
rs264129 allele T (A1), DOM, Imputed, atorvastatin vs pravastatin
  OR: 0.6399
rs373983 allele G, DOM, Imputed, atorvastatin vs pravastatin
  OR: 1.954
rs399485 allele A, DOM, Imputed, atorvastatin vs pravastatin
  OR: 1.648
rs483159 allele T, DOM, Imputed, atorvastatin vs pravastatin
  OR: 1.953
rs489441 allele G, DOM, Imputed, atorvastatin vs pravastatin
  OR: 1.384
rs581905 allele T, DOM, Imputed, atorvastatin vs pravastatin
  OR: 2.177
rs603940, allele G, REC, Genotyped
  OR: 0.3862
rs613799 allele C model DOM Imputed, ATORVA vs PRAVA
  OR: 1.391
rs644041 allele G model ADD Imputed, ATORVA vs PRAVA
  OR: 1.202
rs644041 allele G model DOM Imputed, ATORVA vs PRAVA
  OR: 1.351
rs670593 allele A model REC Imputed, ATORVA vs PRAVA
  OR: 0.3987
rs687047 allele C model ADD Imputed, ATORVA vs PRAVA
  OR: 0.5642
rs688358 allele A model ADD Imputed, ATORVA vs PRAVA
  OR: 0.5756
rs710832 allele A model REC Genotyped, ATORVA vs PRAVA
  OR: 0.4518
rs712531 allele A model DOM Imputed, ATORVA vs PRAVA
  OR: 2.784
rs722927 allele G model ADD Imputed, ATORVA vs PRAVA
  OR: 0.8492
rs722927 allele G model DOM Imputed, ATORVA vs PRAVA
  OR: 0.874
rs726424 allele G model ADD Genotyped, ATORVA vs PRAVA
  OR: 0.7827
rs737542 allele A model REC Imputed, ATORVA vs PRAVA
  OR: 2.077
rs742827 allele A model ADD Imputed, ATORVA vs PRAVA
  OR: 1.396
rs755117 allele A model DOM Imputed, ATORVA vs PRAVA
  OR: 0.7161
rs757173 allele G model DOM Genotyped, ATORVA vs PRAVA
  OR: 1.033
rs892575 allele T, ADD model, Imputed, atorvastatin vs pravastatin
  OR: 1.044
rs892583 allele G, ADD model, Imputed, atorvastatin vs pravastatin
  OR: 1.079
rs915494 allele A, ADD model, Imputed, atorvastatin vs pravastatin
  OR: 1.399
rs915494 allele A, DOM model, Imputed, atorvastatin vs pravastatin
  OR: 1.486
rs917295 allele G, DOM model, Imputed, atorvastatin vs pravastatin
  OR: 0.5934
rs922594 allele T, DOM model, Imputed, atorvastatin vs pravastatin
  OR: 0.5826
rs937890 allele G, DOM model, Imputed, atorvastatin vs pravastatin
  OR: 0.5127
rs949016 allele C, ADD model, Imputed, atorvastatin vs pravastatin
  OR: 1.063
rs966583 allele A, ADD model, Imputed, atorvastatin vs pravastatin
  OR: 0.7596
rs966583 allele A, DOM model, Imputed, atorvastatin vs pravastatin
  OR: 0.6781
rs974130 allele A, REC model, Genotyped, atorvastatin vs pravastatin
  OR: 0.8861
rs977160 allele T, ADD model, Imputed, atorvastatin vs pravastatin
  OR: 0.9972
rs1003148, allele C, ADD, Imputed
  OR: 0.7405
rs1003148, allele C, REC, Imputed
  OR: 0.4879
rs1008705, allele C, DOM, Imputed
  OR: 2.01
rs1012924, allele G, ADD, Imputed
  OR: 1.725
rs1012924, allele G, DOM, Imputed
  OR: 1.754
rs1017558, allele A, REC, Imputed
  OR: 0.7905
rs1030006, allele G, REC, Imputed, atorvastatin vs pravastatin
  OR: 0.87
rs1031811, allele A, REC, Imputed, atorvastatin vs pravastatin
  OR: 2.698
rs1032188, allele G, REC, Imputed
  OR: 0.3936
rs1065639, allele C, DOM, Imputed
  OR: 2.955
rs1116596, allele T, DOM, Imputed
  OR: 0.593
rs1116596, allele T, DOM, Imputed, atorvastatin vs pravastatin
  OR: 0.593
rs1149350, allele A, ADD, Imputed, atorvastatin vs pravastatin
  OR: 0.7733
rs1149350, allele A, DOM, Imputed
  OR: 0.8901
rs1149350, allele A, DOM, Imputed, atorvastatin vs pravastatin
  OR: 0.8901
rs1150143, allele G, DOM, Imputed
  OR: 1.007
rs1232298 allele G REC Imputed
  OR: 1.995
rs1241967 allele T, REC, Imputed, atorvastatin vs pravastatin
  OR: 0.6598
rs1247340 allele C DOM Imputed
  OR: 0.9041
rs1247340 allele C, ADD, Imputed, atorvastatin vs pravastatin
  OR: 0.7681
rs1247340 allele C, DOM, Imputed, atorvastatin vs pravastatin
  OR: 0.9041
rs1247341 allele C DOM Imputed
  OR: 0.919
rs1247341 allele C, ADD, Imputed, atorvastatin vs pravastatin
  OR: 0.7805
rs1247341 allele C, DOM, Imputed, atorvastatin vs pravastatin
  OR: 0.919
rs1247343 allele C, DOM, Imputed, atorvastatin vs pravastatin
  OR: 1.064
rs1321432 allele A REC Imputed
  OR: 0.9755
rs1321457 allele G REC Imputed
  OR: 0.9425
rs1335721 allele A, REC, Imputed, atorvastatin vs pravastatin
  OR: 0.8982
rs1336407 allele T DOM Imputed
  OR: 1.347
rs1336407 allele T, DOM, Imputed, atorvastatin vs pravastatin
  OR: 1.347
rs1336409 allele T DOM Imputed
  OR: 1.347
rs1336409 allele T, DOM, Imputed, atorvastatin vs pravastatin
  OR: 1.347
rs1336596 allele A DOM Imputed
  OR: 0.9849
rs1336596 allele A, DOM, Imputed, atorvastatin vs pravastatin
  OR: 0.9849
rs1343560 allele T ADD Imputed
  OR: 1.717
rs1343560 allele T DOM Imputed
  OR: 1.745
rs1355715 allele T, ADD, Imputed, atorvastatin vs pravastatin
  OR: 0.6617
rs1363273 allele C, REC, Imputed, atorvastatin vs pravastatin
  OR: 0.9417
rs1373601 allele A, DOM, Imputed, atorvastatin vs pravastatin
  OR: 0.9323
rs1386153 allele T ADD Imputed
  OR: 0.8596
rs1386153 allele T DOM Imputed
  OR: 0.8546
rs1394015 allele C DOM Imputed
  OR: 2.85
rs1407038 allele A REC Imputed
  OR: 0.9523
rs1407039 allele A REC Imputed
  OR: 0.9755
rs1414865 allele T DOM Imputed
  OR: 1.352
rs1414865 allele T, DOM, Imputed, atorvastatin vs pravastatin
  OR: 1.352
rs1414873 allele A DOM Imputed
  OR: 1.347
rs1414873 allele A, DOM, Imputed, atorvastatin vs pravastatin
  OR: 1.347
rs1414876 allele C DOM Imputed
  OR: 1.347
rs1414876 allele C, DOM, Imputed, atorvastatin vs pravastatin
  OR: 1.347
rs1418671 allele C REC Imputed
  OR: 1.095
rs1424643 allele G, ADD, Imputed, atorvastatin vs pravastatin
  OR: 1.447
rs1424643 allele G, DOM, Imputed, atorvastatin vs pravastatin
  OR: 1.694
